Results: PubChem BioAssay AID2685 (National Center for Advancing Translational Sciences (NCATS), 2010)
This is one part of the list. The main result of the screen is listed elsewhere. These columns were measured beside it and carry no call. Compounds called inactive in the main read-out are mostly missing here. Potencies come from curve fits of mixed quality, noted in brackets.

Experiment: qHTS Assay for Lipid Storage Modulators in Drosophila S3 Cells;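 on cell number change: cells counted by Cell Tracker Red CMTPX staining in the red channel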
Details: BODIPY lipid droplet fluorescence, 18-24 h; for cell number change: measured here: cell count max response, cells fed with added oleic acid
Method in brief: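 Drosophila S3 cells loaded with oleic acid (400 uM, as added) and compounds at several concentrations; lipid droplets imaged by 488-nm laser-scanning cytometry, 500–530 nm intensity and object ratio to cell channel. Percent activity normalized to 20 uM Triacsin C.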

[1] = measured here: cell number channel AC50, cells fed with added oleic acid
[2] = measured here: lipid fluorescence (Fed channel) AC50, cells fed with added oleic acid

Compound: Cc1ccc(C2(C)NC(=O)N(CC(=O)Nc3ccc(Cl)c(S(=O)(=O)N4CCCCC4)c3)C2=O)cc1 (stereo unspecified)
- cell number change: -42%
- AC50 [1]: 29.1 µM [falling, single point]

Compound: Cc1cc(=O)n2nc(N3CCC(C(=O)Nc4c(F)c(F)c(F)c(F)c4F)CC3)sc2n1
- cell number change: 9.39%

Compound: CCN(CC)CCn1c2c(c(SCC(=O)NCc3ccccc3)nc1=O)CCC2
- cell number change: 7.97%
- AC50 [2]: 9.2 µM [falling, partial curve, poor fit]

Compound: O=C(c1ccccc1)N1CCCCC(Cl)C1=O (stereo unspecified)
- cell number change: -9.4%
- AC50 [2]: 0.00411 µM [rising, full curve, poor fit]

Compound: O=C(O)c1ccc(COc2c(F)c(F)cc(F)c2F)o1
- cell number change: 12.7%

Compound: COc1ccc(C(=O)N[C@H](C(=O)OCc2cc(=O)oc3cc(C)ccc23)C(C)C)cc1
- cell number change: 32.1%
- AC50 [1]: 23.1 µM [rising, partial curve, poor fit]
- AC50 [2]: 0.116 µM [rising, partial curve, poor fit]

Compound: Clc1ccccc1C1=CC(c2ccco2)n2ncnc2N1 (stereo unspecified)
- cell number change: 9.93%
- AC50 [2]: 18.4 µM [rising, single point]

Compound: Cc1ccc(NC(=O)COC(=O)C2COc3ccccc3O2)cc1S(=O)(=O)N1CCOCC1 (stereo unspecified)
- cell number change: -46.8%
- AC50 [1]: 29.1 µM [falling, single point]

Compound: COc1ccc2oc(=O)cc(CN3CCOCC3)c2c1
- cell number change: -2.92%
- AC50 [2]: 6.51 µM [rising, single point]

Compound: O=C(CC1S/C(=N/N=C/c2c[nH]c3ccc(OCc4ccccc4)cc23)NC1=O)Nc1ccccc1 (stereo unspecified)
- cell number change: -23.7%
- AC50 [2]: 18.4 µM [falling, single point]

Compound: Cc1cc(NS(=O)(=O)c2c(C(=O)N3CCOCC3)c(C)n(C)c2C)ccc1Br
- cell number change: 5.2%
- AC50 [2]: 29.1 µM [rising, single point]

Compound: Cc1ccc(CC2CC(=O)N(Cc3ccco3)C2=O)cc1 (stereo unspecified)
- cell number change: 7.02%
- AC50 [2]: 0.411 µM [rising, full curve, poor fit]

Compound: COc1cc(NC(=O)C2CCCC2)c(OC)cc1Cl
- cell number change: 46.9%
- AC50 [1]: 0.651 µM [rising, full curve]
- AC50 [2]: 8.2 µM [rising, partial curve]

Compound: Cc1ccc(CNC(=O)[C@@H]2CCC(=O)N2Cc2ccco2)cc1
- cell number change: -39%
- AC50 [1]: 18.4 µM [falling, single point]
- AC50 [2]: 13 µM [falling, partial curve]

Compound: Cc1ccc(NC(=O)Nc2cccnc2)cc1NC(=O)Nc1cccnc1
- cell number change: -25%
- AC50 [2]: 13 µM [falling, single point]

Compound: CC(C)C(OC(=O)c1nsc(Cl)c1Cl)C(=O)NC(C)(C)C (stereo unspecified)
- cell number change: 5.81%

Compound: Cc1ccc(O)c(-c2cc(C(=O)Nc3ccc(S(=O)(=O)Nc4nc(C)cc(C)n4)cc3)[nH]n2)c1
- cell number change: -22.8%
- AC50 [1]: 2.91 µM [rising, partial curve]
- AC50 [2]: 32.6 µM [rising, single point]

Compound: Clc1ccc(CNc2cnccn2)cc1
- AC50 [2]: 0.116 µM [rising, full curve, poor fit]

Compound: Cc1cc([N+](=O)[O-])cc(C)c1OCC(=O)N/N=C/c1ccc(OC(=O)c2ccccc2)cc1
- cell number change: -18.7%
- AC50 [1]: 0.731 µM [rising, partial curve, poor fit]
- AC50 [2]: 2.91 µM [rising, partial curve]

Compound: O=C(CN1CCc2ccccc2C1)NC1CCCC1
- AC50 [1]: 0.651 µM [rising, partial curve, poor fit]
- AC50 [2]: 0.00461 µM [rising, full curve, poor fit]

Compound: COc1ccc(CC(=O)OCC(=O)N(C)C2CCS(=O)(=O)C2)cc1OC (stereo unspecified)
- cell number change: -20.2%
- AC50 [1]: 2.59 µM [falling, single point]

Compound: Cc1ccc(NC(=O)c2nnn(-c3cc(C)cc(C)c3)c2N)cc1
- cell number change: -37.9%
- AC50 [1]: 0.058 µM [falling, full curve, poor fit]
- AC50 [2]: 25.9 µM [falling, single point]

Compound: COC(C(=O)NNC(=O)CCc1ccccc1)c1ccccc1 (stereo unspecified)
- cell number change: -6.07%
- AC50 [2]: 2.06 µM [falling, single point]

Compound: O=C(NCCNC(=O)c1ccccn1)c1ccc(Cl)cc1
- cell number change: 17.1%
- AC50 [2]: 1.16 µM [rising, single point]

Compound: COC(=O)c1nc2n(n1)C(c1cccc(Cl)c1)C1=C(CC(C)(C)CC1=O)N2 (stereo unspecified)
- cell number change: -23%
- AC50 [1]: 1.84 µM [falling, full curve, poor fit]
- AC50 [2]: 1.84 µM [falling, full curve]

Compound: Cc1cc(C)c(/C=C(\C#N)C(N)=S)c(C)c1
- cell number change: -52.8%
- AC50 [1]: 29.1 µM [falling, single point]
- AC50 [2]: 2.31 µM [falling, partial curve]

Compound: Cc1cccc(-c2nnc(-c3ccccc3)o2)c1
- cell number change: -9.79%
- AC50 [2]: 2.06 µM [rising, full curve]

Compound: Cc1ccc(NCC(=O)N/N=C/c2ccc(-c3cccc(C(F)(F)F)c3)o2)cc1
- cell number change: -52.7%
- AC50 [1]: 20.6 µM [falling, single point]
- AC50 [2]: 16.4 µM [falling, single point]

Compound: CCC1CN(C(=O)N2CCC(C(=O)NCCc3ccc(OC)cc3OC)CC2)c2ccccc2O1 (stereo unspecified)
- AC50 [2]: 4.61 µM [falling, full curve]

Compound: CC1(C)Cc2c(sc3c2C(=O)N(c2ccccc2)C2=NCCCN23)CO1
- cell number change: -16.4%
- AC50 [2]: 2.31 µM [falling, partial curve, poor fit]

Compound: CC1=C(C)C(=O)C(CCCCC#CCCCC#CCO)=C(C)C1=O
- cell number change: 8.31%
- AC50 [2]: 4.11 µM [rising, partial curve]

Compound: Cc1ccc(-c2c[n+](Cc3cccc(Cl)c3)c3n2CCC3)cc1
- AC50 [2]: 29.1 µM [falling, single point]

Compound: O=C1NC(=Nc2ccccc2)S/C1=C\c1ccccc1
- cell number change: 26.6%
- AC50 [2]: 23.1 µM [falling, single point]

Compound: Cc1cc(C(=O)NCC2CCCCC2)ccc1[N+](=O)[O-]
- cell number change: 30%
- AC50 [2]: 6.51 µM [falling, single point]

Compound: CCOCC(=O)Nc1nnc(COC)s1
- cell number change: -77%
- AC50 [1]: 1.64 µM [falling, partial curve]
- AC50 [2]: 29.1 µM [falling, single point]

Compound: Cc1ccccc1NP(=O)(c1ccccc1)c1nc2ccccc2s1 (stereo unspecified)
- cell number change: 29.4%
- AC50 [2]: 14.6 µM [rising, partial curve, poor fit]

Compound: CCc1ccc(CN(C)C(=O)C2=CC=CN3CCS(=O)(=O)N=C23)cc1
- cell number change: -20.5%

Compound: CC(C)C(=O)Nc1c2c(nn1-c1ccccc1)CSC2
- cell number change: 7.37%
- AC50 [2]: 29.1 µM [rising, single point]

Compound: COc1cccc(N2CCN(C(=O)c3ccc(CSc4nc5ccncc5[nH]4)cc3)CC2)c1
- cell number change: -35.9%
- AC50 [1]: 5.17 µM [falling, partial curve]
- AC50 [2]: 4.11 µM [falling, full curve]

Compound: CCC(=O)N(CCc1ccccc1)Cc1cc2cc3c(cc2[nH]c1=O)OCO3
- cell number change: -28.7%
- AC50 [2]: 2.06 µM [falling, partial curve, poor fit]

Compound: OC1(C#CCN2CCCC2)CCCCC1
- cell number change: -3.28%
- AC50 [2]: 29.1 µM [rising, single point]

Compound: O=S(=O)(c1ccccc1)N1CCN(c2ncnc3sc(-c4ccccc4)cc23)CC1
- cell number change: -9.94%

Compound: COc1ccc(NS(=O)(=O)c2ccc(O)c(C(=O)OCC(=O)N3CCCCC3)c2)cc1
- cell number change: -14.9%
- AC50 [2]: 0.00461 µM [rising, full curve, poor fit]

Compound: COCCNC(=O)CN1C(=O)NC2(CCCCCC2)C1=O
- AC50 [1]: 4.11 µM [rising, single point]

Compound: COc1ccc2oc(=O)c(C(=O)O)cc2c1
- cell number change: -9.92%
- AC50 [2]: 0.00461 µM [falling, full curve, poor fit]

Compound: Cc1sc(NC(=O)Cn2c(=O)oc3ccccc32)nc1-c1ccc(Cl)cc1
- cell number change: -11.1%
- AC50 [2]: 16.4 µM [falling, single point]

Compound: NC(=O)CSc1nc2c(c(=O)n1-c1ccccc1)C1(CCCCC1)Cc1ccccc1-2
- cell number change: 4.8%
- AC50 [2]: 1.64 µM [rising, partial curve, poor fit]

Compound: CCc1sc(C(=O)NCc2ccccc2)cc1C
- AC50 [1]: 0.00411 µM [rising, partial curve, poor fit]

Compound: CCOC(=O)N/N=C/c1ccc(N(CC)CC)cc1O
- cell number change: 1.45%

Compound: COc1ccc(NC(=O)CN2C(=O)NC(C)(C3CC3)C2=O)cc1S(=O)(=O)N1CCOCC1 (stereo unspecified)
- cell number change: 8.49%

Compound: CCOc1ccc(C(=O)NC(C(=O)NCCc2ccc(OC(F)F)cc2)C(C)C)cc1 (stereo unspecified)
- cell number change: 8.33%

Compound: COc1c2ccoc2c(OC[C@@H](O)C(C)(C)OC)c2oc(=O)ccc12
- cell number change: 22.3%
- AC50 [2]: 0.231 µM [rising, full curve, poor fit]

Compound: COc1ccc(N(CN2C(=O)c3ccccc3C2=O)C(=O)COc2ccc(Cl)cc2Cl)cc1
- cell number change: 8.81%
- AC50 [2]: 29.1 µM [rising, single point]

Compound: O=C(C#Cc1ccccc1)NCc1ccccc1F
- cell number change: -16.8%

Compound: O=C(c1ccco1)N(Cc1ccc(Cl)cc1)Cc1ccco1
- cell number change: -5.6%
- AC50 [2]: 29.1 µM [rising, single point]

Compound: CCOc1ccc2oc(C(=O)NCC(c3ccco3)N(C)C)c(C)c2c1 (stereo unspecified)
- cell number change: -25.6%
- AC50 [2]: 6.51 µM [falling, partial curve, poor fit]

Compound: O=C(COC(=O)c1cn(-c2ccccc2)nc1-c1ccccc1)Nc1ncc(Cl)cc1Cl
- cell number change: 11.6%
- AC50 [2]: 0.517 µM [rising, full curve, poor fit]

Compound: Cc1c(NC(=O)c2ccccc2F)c(=O)n(-c2ccccc2)n1C
- cell number change: -18.8%
- AC50 [2]: 6.51 µM [rising, single point]

Compound: O=C(NC1=C(Nc2ccc(Cl)cc2)C(=O)c2ccccc2C1=O)c1ccccc1
- cell number change: -92.5%
- AC50 [1]: 16.4 µM [falling, partial curve, poor fit]
- AC50 [2]: 3.26 µM [falling, partial curve, poor fit]
